From publication PMC6610666
No constants are given. Whether binding was seen depends on the method and setting. Binding seen in cells or lysates may run through a third protein. Here binding means that the protein was enriched with, or labelled near, the bait; the list need not be complete. No binding means not detected with the bait.

By UniProt entry, the sequences of proteins in these tests, tags left out.
UniProt Q8R0K9: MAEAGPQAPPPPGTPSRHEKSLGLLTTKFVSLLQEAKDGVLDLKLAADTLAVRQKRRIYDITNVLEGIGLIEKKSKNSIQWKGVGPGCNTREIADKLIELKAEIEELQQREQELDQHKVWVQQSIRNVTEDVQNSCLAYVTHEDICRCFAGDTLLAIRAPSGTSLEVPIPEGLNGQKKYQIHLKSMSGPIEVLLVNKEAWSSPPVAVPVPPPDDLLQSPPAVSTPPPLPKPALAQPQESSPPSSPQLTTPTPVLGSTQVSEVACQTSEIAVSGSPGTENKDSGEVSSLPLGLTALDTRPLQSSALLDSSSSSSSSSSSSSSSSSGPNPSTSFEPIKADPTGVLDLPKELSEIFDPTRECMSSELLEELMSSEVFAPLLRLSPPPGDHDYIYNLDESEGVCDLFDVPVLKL
UniProt P45481: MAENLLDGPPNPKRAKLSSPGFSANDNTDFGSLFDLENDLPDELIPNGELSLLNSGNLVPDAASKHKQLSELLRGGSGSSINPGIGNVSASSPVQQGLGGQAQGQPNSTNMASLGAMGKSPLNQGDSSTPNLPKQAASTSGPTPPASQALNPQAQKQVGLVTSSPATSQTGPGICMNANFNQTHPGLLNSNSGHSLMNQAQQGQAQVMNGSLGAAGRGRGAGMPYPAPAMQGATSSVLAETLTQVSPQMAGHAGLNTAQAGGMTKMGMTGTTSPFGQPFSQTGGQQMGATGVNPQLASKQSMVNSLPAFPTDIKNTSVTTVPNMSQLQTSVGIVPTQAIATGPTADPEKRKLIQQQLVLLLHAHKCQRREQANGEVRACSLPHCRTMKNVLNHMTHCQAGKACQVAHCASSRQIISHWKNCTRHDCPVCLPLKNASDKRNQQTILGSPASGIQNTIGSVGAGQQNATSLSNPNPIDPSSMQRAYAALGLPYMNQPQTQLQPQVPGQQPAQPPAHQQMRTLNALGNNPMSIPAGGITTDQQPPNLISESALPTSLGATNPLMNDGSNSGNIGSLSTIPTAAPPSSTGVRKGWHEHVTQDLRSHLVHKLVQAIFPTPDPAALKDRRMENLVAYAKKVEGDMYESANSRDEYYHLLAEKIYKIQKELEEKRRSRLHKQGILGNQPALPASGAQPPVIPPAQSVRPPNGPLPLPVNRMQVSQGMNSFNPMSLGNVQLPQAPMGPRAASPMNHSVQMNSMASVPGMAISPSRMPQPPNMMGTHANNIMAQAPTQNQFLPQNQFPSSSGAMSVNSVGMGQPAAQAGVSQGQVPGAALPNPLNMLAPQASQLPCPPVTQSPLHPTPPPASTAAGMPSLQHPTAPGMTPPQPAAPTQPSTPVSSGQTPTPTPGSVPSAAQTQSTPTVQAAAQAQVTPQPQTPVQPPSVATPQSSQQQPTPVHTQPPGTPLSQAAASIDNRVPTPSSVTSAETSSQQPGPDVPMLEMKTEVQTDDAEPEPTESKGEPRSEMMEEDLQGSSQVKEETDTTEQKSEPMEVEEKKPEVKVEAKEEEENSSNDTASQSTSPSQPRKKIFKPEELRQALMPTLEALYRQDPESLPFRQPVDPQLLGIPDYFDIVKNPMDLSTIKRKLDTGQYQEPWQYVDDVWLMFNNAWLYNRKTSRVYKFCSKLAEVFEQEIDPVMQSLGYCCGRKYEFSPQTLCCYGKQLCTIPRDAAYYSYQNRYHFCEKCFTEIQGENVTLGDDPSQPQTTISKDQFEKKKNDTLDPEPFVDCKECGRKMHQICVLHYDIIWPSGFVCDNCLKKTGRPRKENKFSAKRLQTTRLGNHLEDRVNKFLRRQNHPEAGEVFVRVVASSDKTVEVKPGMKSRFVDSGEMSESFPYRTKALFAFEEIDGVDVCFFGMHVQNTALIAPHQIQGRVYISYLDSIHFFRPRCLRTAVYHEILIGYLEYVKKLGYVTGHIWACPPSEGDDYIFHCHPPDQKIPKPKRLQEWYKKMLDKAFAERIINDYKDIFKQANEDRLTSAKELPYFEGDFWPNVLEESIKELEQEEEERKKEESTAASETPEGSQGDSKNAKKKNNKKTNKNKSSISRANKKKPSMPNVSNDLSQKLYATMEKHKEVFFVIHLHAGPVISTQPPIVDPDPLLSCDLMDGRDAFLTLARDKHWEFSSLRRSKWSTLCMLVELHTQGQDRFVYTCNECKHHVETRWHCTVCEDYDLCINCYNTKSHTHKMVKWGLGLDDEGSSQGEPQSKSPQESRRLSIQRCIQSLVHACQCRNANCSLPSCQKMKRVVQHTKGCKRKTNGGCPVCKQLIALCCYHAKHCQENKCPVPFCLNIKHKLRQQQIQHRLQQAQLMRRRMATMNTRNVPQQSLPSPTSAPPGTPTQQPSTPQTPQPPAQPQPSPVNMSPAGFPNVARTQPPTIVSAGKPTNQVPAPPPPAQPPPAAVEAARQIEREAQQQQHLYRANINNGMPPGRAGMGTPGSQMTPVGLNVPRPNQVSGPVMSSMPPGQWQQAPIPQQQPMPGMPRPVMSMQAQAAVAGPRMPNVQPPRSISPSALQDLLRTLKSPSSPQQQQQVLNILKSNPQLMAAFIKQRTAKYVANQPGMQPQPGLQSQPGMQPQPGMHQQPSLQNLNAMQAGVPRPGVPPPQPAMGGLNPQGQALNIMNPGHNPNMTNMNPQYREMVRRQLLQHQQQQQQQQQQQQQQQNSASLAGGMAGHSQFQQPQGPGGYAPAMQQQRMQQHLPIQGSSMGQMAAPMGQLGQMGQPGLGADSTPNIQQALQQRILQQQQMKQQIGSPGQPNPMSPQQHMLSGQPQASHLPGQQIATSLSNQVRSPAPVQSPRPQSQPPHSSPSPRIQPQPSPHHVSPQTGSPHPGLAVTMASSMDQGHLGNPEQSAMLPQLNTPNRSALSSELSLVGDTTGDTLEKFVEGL
UniProt P70168: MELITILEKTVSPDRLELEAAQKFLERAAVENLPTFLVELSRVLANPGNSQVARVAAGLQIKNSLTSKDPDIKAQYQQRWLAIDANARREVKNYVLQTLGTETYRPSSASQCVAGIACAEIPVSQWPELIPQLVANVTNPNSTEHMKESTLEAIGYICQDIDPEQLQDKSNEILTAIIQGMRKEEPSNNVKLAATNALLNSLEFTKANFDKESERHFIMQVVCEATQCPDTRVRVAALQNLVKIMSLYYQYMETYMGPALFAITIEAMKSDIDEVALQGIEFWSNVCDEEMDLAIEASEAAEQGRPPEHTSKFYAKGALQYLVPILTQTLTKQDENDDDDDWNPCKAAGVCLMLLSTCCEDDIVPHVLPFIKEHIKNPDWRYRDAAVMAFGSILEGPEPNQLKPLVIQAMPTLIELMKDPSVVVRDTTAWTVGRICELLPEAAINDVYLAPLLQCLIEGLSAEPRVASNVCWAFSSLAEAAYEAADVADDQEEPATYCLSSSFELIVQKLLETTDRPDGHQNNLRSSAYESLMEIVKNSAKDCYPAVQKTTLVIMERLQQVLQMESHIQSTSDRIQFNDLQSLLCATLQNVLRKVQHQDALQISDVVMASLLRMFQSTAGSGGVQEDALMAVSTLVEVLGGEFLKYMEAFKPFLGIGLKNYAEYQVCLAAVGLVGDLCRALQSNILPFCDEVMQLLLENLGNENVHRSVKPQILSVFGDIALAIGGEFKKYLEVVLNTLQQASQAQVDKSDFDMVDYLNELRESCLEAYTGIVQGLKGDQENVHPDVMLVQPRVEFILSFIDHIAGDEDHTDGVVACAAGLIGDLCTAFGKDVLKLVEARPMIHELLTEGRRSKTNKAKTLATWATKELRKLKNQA
UniProt P60122: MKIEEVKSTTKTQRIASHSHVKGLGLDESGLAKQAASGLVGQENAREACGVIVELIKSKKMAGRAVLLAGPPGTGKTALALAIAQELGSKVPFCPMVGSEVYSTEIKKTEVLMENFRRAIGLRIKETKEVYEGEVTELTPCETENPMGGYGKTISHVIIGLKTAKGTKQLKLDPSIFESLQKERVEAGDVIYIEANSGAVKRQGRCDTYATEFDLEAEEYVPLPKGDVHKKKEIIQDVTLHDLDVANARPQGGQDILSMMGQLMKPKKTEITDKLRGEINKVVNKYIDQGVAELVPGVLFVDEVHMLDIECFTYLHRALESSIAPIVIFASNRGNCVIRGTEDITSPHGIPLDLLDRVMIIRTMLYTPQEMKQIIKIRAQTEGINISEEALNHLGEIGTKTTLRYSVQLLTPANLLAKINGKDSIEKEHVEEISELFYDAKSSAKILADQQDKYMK
UniProt Q9WTM5: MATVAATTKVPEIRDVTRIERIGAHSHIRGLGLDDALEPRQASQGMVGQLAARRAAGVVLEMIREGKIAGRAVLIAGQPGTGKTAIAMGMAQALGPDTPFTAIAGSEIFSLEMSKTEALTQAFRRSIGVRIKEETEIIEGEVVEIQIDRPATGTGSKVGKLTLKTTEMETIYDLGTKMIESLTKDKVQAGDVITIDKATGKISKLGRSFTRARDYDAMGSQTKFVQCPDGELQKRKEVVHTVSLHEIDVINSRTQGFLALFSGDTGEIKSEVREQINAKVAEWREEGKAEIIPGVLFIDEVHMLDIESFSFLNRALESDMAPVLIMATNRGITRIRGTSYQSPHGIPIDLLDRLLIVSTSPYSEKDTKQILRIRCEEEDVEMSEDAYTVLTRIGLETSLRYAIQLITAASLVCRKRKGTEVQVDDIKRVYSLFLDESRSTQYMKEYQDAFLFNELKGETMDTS

What follows are substances tested against LAP-tagged mouse E2F4 (mouse) (UniProt Q8R0K9) (assay: affinity purification with mass spectrometry; LAP (EGFP, S tag)-tagged mouse E2F4 expressed by lentivirus in RB family TKO mESCs; tandem affinity purification; slices of the gel of the eluted fraction subjected to mass spectrometry).

Row | Substance | binding
1 | CBP (CREB-binding protein), endogenous (from UniProt P45481 1-2441) | no binding
2 | KPNB1 (from UniProt P70168 1-876) | binds
3 | Pontin (from UniProt P60122 1-456) | binds
4 | Reptin (from UniProt Q9WTM5 1-463) | binds
